Data reported in PubChem BioAssay AID330 (DTP/NCI, 2004).
The list shows only some results of the screen, not a fair sample: it gathers tests that were run many times, whatever their T/C, doses with no T/C, and many T/C values between a quarter and a half above the control. Other doses and runs of a compound stand elsewhere. T/C is the treated group as % of the vehicle group. Some doses have a count of surviving animals in place of a T/C: the source files T/C as zero there, which appears to mark a toxic dose or a test without result, not a measured value. Some survivor counts are full or nearly so, which does not show that the dose was tolerated: the source hardly ever lists a survival T/C far under the control, and the zero likely stands for such cases as well. Counts of survivors are from the toxicity check (mostly the fifth day) where no day follows; animals may have died later. Schedules are NCI's codes, taken here to give the interval after Q, in days (D) or hours (H), and the number of doses after X. Some entries hold several experiments; their values stand side by side, smallest first. Where survival is the endpoint, the PubChem record calls one and a half times the control and up active, and a quarter to a half above the control has no call in these data; cut-offs in other NCI protocols can differ. Signs of the kind (2×) give the number of equal values in this list.

Tested on: P388 leukemia ip, CD2F1 mice, survival T/C
Test: NCI In Vivo Anticancer Drug Screen. Data for tumor model P388 Leukemia (intraperitoneal) in CD2F1 (CDF1) mice
Conditions: T/C endpoint: median survival time, higher T/C = longer survival
[1] = dose: 100.0 mg/kg/injection, schedule: Q04DX002 (ip), vehicle: Klucel (hydroxypropylcellulose) (HPC)
[2] = dose: 400.0 mg/kg/injection, schedule: Q04DX003 (ip), vehicle: Klucel (hydroxypropylcellulose) (HPC)
[3] = dose: 100.0 mg/kg/injection, schedule: Q01DX009 (ip), vehicle: saline with Tween-80
[4] = dose: 100.0 mg/kg/injection, schedule: Q01DX005 (ip), vehicle: saline
[5] = dose: 200.0 mg/kg/injection, schedule: Q01DX005 (ip), vehicle: saline
[6] = dose: 200.0 mg/kg/injection, schedule: Q01DX005 (ip), vehicle: Klucel (hydroxypropylcellulose) (HPC)
[7] = dose: 200.0 mg/kg/injection, schedule: Q01DX009 (ip), vehicle: saline with Tween-80
[8] = dose: 400.0 mg/kg/injection, schedule: Q04DX003 (ip), vehicle: saline with Tween-80

## CC(=O)[O-].CC(=O)[O-].CC(=O)[O-].CC(=O)[O-].Cn1c(=O)c2[nH]cnc2n(C)c1=O.Cn1c(=O)c2[nH]cnc2n(C)c1=O.[Rh+2].[Rh+2]
dose: 25.0 mg/kg/injection, schedule: Q04DX002 (ip), vehicle: Klucel (hydroxypropylcellulose) (HPC)
  T/C: 128 % of control
[1]
  T/C: 130 % of control
  survivor count: 3 of 6
dose: 200.0 mg/kg/injection, schedule: Q04DX002 (ip), vehicle: Klucel (hydroxypropylcellulose) (HPC)
  survivor count: 0 of 6
dose: 400.0 mg/kg/injection, schedule: Q04DX002 (ip), vehicle: Klucel (hydroxypropylcellulose) (HPC)
  survivor count: 0 of 6

## O=C(O)CC1(C(=O)O)CCC(OCc2ccccc2)CC1 (centres undefined)
dose: 200.0 mg/kg/injection, schedule: Q01DX009 (ip), vehicle: saline
  survivor count: 4 of 6

## COc1cc2c(cc1O)CCCC(C)(C)C2=O
dose: 400.0 mg/kg/injection, schedule: Q01DX009 (ip), vehicle: saline with Tween-80
  survivor count: 6 of 6

## C[C@@H]1C[C@@]2(C)[C@@H](CC[C@@H]3[C@@H]2CC[C@]2(C)[C@@H](O)CC[C@@H]32)CC1=O
[2]
  survivor count: 2 of 6

## CN(C)c1ccc(/C=C/c2c(F)cnc3ccccc23)cc1
dose: 50.0 mg/kg/injection, schedule: Q01DX009 (ip), vehicle: Klucel (hydroxypropylcellulose) (HPC)
  survivor count: 6 of 6
dose: 100.0 mg/kg/injection, schedule: Q01DX009 (ip), vehicle: Klucel (hydroxypropylcellulose) (HPC)
  survivor count: 6 of 6
dose: 200.0 mg/kg/injection, schedule: Q01DX009 (ip), vehicle: Klucel (hydroxypropylcellulose) (HPC)
  survivor count: 6 of 6

## CCCC1CN2CCc3cc(OC)c(OC)cc3C2C/C1=C/C(=O)OCC (centres undefined)
[3]
  survivor count: 6 of 6

## CCC1(CC2CCCN(C)C2)c2ccccc2Sc2ccccc21 (centres undefined)
[4]
  survivor count: 0 of 6
[5]
  survivor count: 0 of 6

## COc1ccc(C(Cc2ccccc2)NCCNCCO)cc1 (centres undefined)
[6]
  survivor count: 0 of 5

## COc1ccc(/C=N\NC(=O)C(=O)N/N=C\c2ccc(OC)cc2)cc1
dose: 50.0 mg/kg/injection, schedule: Q01DX009 (ip), vehicle: distilled water + alcohol
  survivor count: 6 of 6

## CCOC(=O)N1C=CC=C(Br)C1C#N (centres undefined)
dose: 100.0 mg/kg/injection, schedule: Q01DX005 (ip), vehicle: saline with Tween-80
  survivor count: 0 of 6
dose: 200.0 mg/kg/injection, schedule: Q01DX005 (ip), vehicle: saline with Tween-80
  survivor count: 0 of 6

## O=c1c(Cl)c2oc3ccc([N+](=O)[O-])cc3nc-2c(Cl)c1Cl
[7]
  survivor count: 0 of 6

## C/C=C/C=C/C1=C2C(=O)N(c3ccccc3)N=C2CC(C)O1 (centres undefined)
[6]
  survivor count: 3 of 6

## [Cl][Pt+2][Cl].[NH-]CC([NH-])CN
dose: 100.0 mg/kg/injection, schedule: Q04DX003 (ip), vehicle: saline
  survivor count: 0 of 6
dose: 200.0 mg/kg/injection, schedule: Q04DX003 (ip), vehicle: saline
  survivor count: 0 of 6
dose: 400.0 mg/kg/injection, schedule: Q04DX003 (ip), vehicle: saline
  survivor count: 0 of 6

## NC(=S)N/N=C/c1ccccc1
dose: 50.0 mg/kg/injection, schedule: Q04DX003 (ip), vehicle: Klucel (hydroxypropylcellulose) (HPC)
  survivor count: 2 of 6
dose: 100.0 mg/kg/injection, schedule: Q04DX003 (ip), vehicle: Klucel (hydroxypropylcellulose) (HPC)
  survivor count: 1 of 6
dose: 200.0 mg/kg/injection, schedule: Q04DX003 (ip), vehicle: Klucel (hydroxypropylcellulose) (HPC)
  survivor count: 0 of 6
[2]
  survivor count: 0 of 6

## CC(=O)SCC(C)CCl (centres undefined)
[8]
  survivor count: 5 of 6

## CCCCCOP(=O)(N=[N+]=[N-])OCCCCC
dose: 3.12 mg/kg/injection, schedule: Q01DX009 (ip), vehicle: saline with Tween-80
  survivor count: 0 of 6
dose: 6.25 mg/kg/injection, schedule: Q01DX009 (ip), vehicle: saline with Tween-80
  survivor count: 0 of 6
dose: 12.5 mg/kg/injection, schedule: Q01DX009 (ip), vehicle: saline with Tween-80
  survivor count: 0 of 6
dose: 25.0 mg/kg/injection, schedule: Q01DX009 (ip), vehicle: saline with Tween-80
  survivor count: 0 of 6
dose: 50.0 mg/kg/injection, schedule: Q01DX009 (ip), vehicle: saline with Tween-80
  survivor count: 0 of 6
[3]
  survivor count: 0 of 6
[7]
  survivor count: 0 of 6

## CCOC(=O)CCSc1ccccc1
dose: 100.0 mg/kg/injection, schedule: Q04DX003 (ip), vehicle: saline with Tween-80
  survivor count: 3 of 6
dose: 200.0 mg/kg/injection, schedule: Q04DX003 (ip), vehicle: saline with Tween-80
  survivor count: 0 of 6
[8]
  survivor count: 0 of 6

## CSc1noc(N)n1
[4]
  survivor count: 2 of 5
[5]
  survivor count: 0 of 5

## c1ccc(N/N=C2/CCN3CCCc4cccc2c43)cc1
dose: 100.0 mg/kg/injection, schedule: Q04DX003 (ip), vehicle: DMSO
  survivor count: 6 of 6

## O=C1C(Cl)=C(NCCC2CCCN3CCCCC23)C(=O)c2ccccc21 (centres undefined)
dose: 50.0 mg/kg/injection, schedule: Q01DX005 (ip), vehicle: Klucel (hydroxypropylcellulose) (HPC), evaluated on day 20
  T/C: 102 % of control (2×)
dose: 50.0 mg/kg/injection, schedule: Q01DX005 (ip), vehicle: Klucel (hydroxypropylcellulose) (HPC), evaluated on day 30
  T/C: 100 and 120 % of control
dose: 100.0 mg/kg/injection, schedule: Q01DX005 (ip), vehicle: Klucel (hydroxypropylcellulose) (HPC)
  survivor count: 6 of 6
[6]
  survivor count: 0 of 6

## CN(C)C1CCc2ccccc2C1OC(=O)c1ccccc1 (centres undefined)
[7]
  survivor count: 3 of 6

## NNc1ccc(-n2ncc(C(N)=O)c2N)nn1
dose: 200.0 mg/kg/injection, schedule: Q01DX005 (ip), vehicle: other
  survivor count: 1 of 5

## COc1ccc(-n2c(SCC(=O)NC(=O)Nc3ccccc3)nc3c(Br)cc(Br)cc3c2=O)cc1
dose: 60.0 mg/kg/injection, schedule: Q01DX005 (ip), vehicle: Klucel (hydroxypropylcellulose) (HPC)
  survivor count: 6 of 6
dose: 120.0 mg/kg/injection, schedule: Q01DX005 (ip), vehicle: Klucel (hydroxypropylcellulose) (HPC)
  survivor count: 6 of 6

## NCC(=O)O.[Cl][Ga]([Cl])[Cl]
dose: 200.0 mg/kg/injection, schedule: Q04DX003 (ip), vehicle: saline sonified
  survivor count: 4 of 6
dose: 400.0 mg/kg/injection, schedule: Q04DX003 (ip), vehicle: saline sonified
  survivor count: 2 of 6

## CCn1c2ccccc2c2ccc(N=Nc3ccc(N(C)C)cc3)cc21
[3]
  T/C: 126 % of control
[7]
  T/C: 133 % of control
  survivor count: 4 of 6 and 5 of 6
